# Source: PubChem BioAssay AID1487 (National Center for Advancing Translational Sciences (NCATS), 2009)
# Among all 200,000 compounds or so, about 25 (0.01%) were called active. The inconclusive results got no clear call from the source; some entries with a clear call stand among them for comparison. Calls come from the whole dose curve; as a rule, active = well fitted inhibition curve with a large enough effect in the signal ratio, with a control signal flat (not every such curve was filed as active); inconclusive = small, poorly fitted or top-dose-only effect, or effect the other way, or a change in a side signal; inactive = flat fitted curve, though single readings scatter; the % refers to the signal ratio. Where the call is inconclusive, the potency comes from a doubtful curve fit.
# Assay: qHTS Assay for Modulators of Lamin A Splicing
# Conditions: HeLa LMNA splicing GFP/RFP minigene ratio, 48 h; ratio change, negative = inhibition: at 46.1 µM (top of the series) unless noted
# Method in brief: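 Read-out is the ratio of GFP to DsRed2 object intensity, acquired by 488 nm laser-scanning cytometry on HeLa lamin A-EGFP minigene reporter cells. Compound incubation 48 hrs at 37 °C in Opti-MEM with 2% FBS; DMSO 0.5% final.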
# % is set by controls: 0 for no effect and ±100 for the full control effect; potency is the fitted concentration of half-maximal effect.
Structure (SMILES),"ratio change, negative = inhibition",Potency
COc1ccc(C(=O)NCC(c2cccnc2)N2CCc3ccccc32)cc1OC (configuration not stated),inactive: 22.2% [at 46 µM],–
Cc1ccnc(NS(=O)(=O)Cc2ccccc2)c1,inactive: 1.58%,–
COC(=O)c1ccc(N2C(=O)CC(N(C)Cc3ccccc3)C2=O)cc1 (configuration not stated),inactive: 2.6%,–
Cc1ccc(Nc2c(-c3cccnc3)nc3ccc(Br)cn23)cc1,inconclusive: 2.61% [at 46 µM],–
NC(=O)C1CCN(C(=O)COc2cccc3cccnc23)CC1,inconclusive: -7.18% [at 46 µM],–
O=S(=O)(Nc1cccc(-c2ccc(N3CCCC3)nn2)c1)c1ccc(F)c(C(F)(F)F)c1,inconclusive: 0.826% [at 46 µM],–
Nn1c(SCC(=O)Nc2ccc(F)cc2)nnc1-c1ccccn1,inconclusive: 20.4%,–
CCOC(=O)c1cccc(NC(=O)CCc2c(C)nn(-c3ccc(N4CCOCC4)nn3)c2C)c1,inconclusive: -18.7% [at 46 µM],–
COc1cc(/C=N/NC(=S)NC2CC3CCC2C3)ccc1O (configuration not stated),inconclusive: 47.9% [at 46 µM],–
Cc1cccc2nc(CSc3nc4[nH]ncc4c(=O)n3-c3cccc(Cl)c3)cc(=O)n12,inconclusive: -33.3%,–
CN(C)S(=O)(=O)c1cccc(-c2cn3cc(Cl)ccc3n2)c1,inactive: 7.67%,–
COC(=O)c1ccc(-c2ccc(C(=O)N3CCCN(C)CC3)cc2)cc1,inconclusive: 8.9%,–
O=C(CCOc1ccccc1)N(Cc1cccnc1)c1nc2ccc(F)cc2s1,–,"inconclusive: 10 µM [inhibitor, partial curve, poor fit]"
Cc1ccc(C(=O)OCC(=O)Nc2sc3c(c2C#N)CCC3)cc1,inactive: -12.7%,–
Cc1cccc(NS(=O)(=O)c2ccc(NC(=O)N3CCCC3)cc2)c1,inconclusive: -13.8% [at 46 µM],–
CCOC(=O)CCNC(=O)CNC(=O)OCc1ccccc1,inconclusive: -1.28%,–
COC(=O)N/N=C(\C)c1ccc2ccccc2c1OC(F)F,inconclusive: -30.1%,–
COc1ccc(C2CC(=O)N(Cc3ccccc3)c3c2c(C)nn3-c2nc(C)cc(C)n2)c(OC)c1 (configuration not stated),inactive: 17.9% [at 46 µM],–
CC(NC(=O)NC(N)=O)(C(F)(F)F)C(F)(F)F,inactive: 16% [at 0.0737 µM],–
Cc1ccc(C(=O)C(C)CN2CCCCC2)cc1 (configuration not stated),–,"inconclusive: 12.6 µM [falling, partial curve, poor fit]"
O=C(N/N=C/c1ccc(Br)cc1)c1cc[n+](Cc2ccccc2)cc1,inconclusive: -10.4%,–
CC(C)OCCCNC(=O)c1ccc(NS(C)(=O)=O)cc1,inactive: -2.27%,–

Structure (SMILES),"ratio change, negative = inhibition",Potency
COc1ccc2cc(CN(Cc3cccnc3)Cc3nnnn3Cc3ccccc3)c(=O)[nH]c2c1,inactive: -4.6%,–
CC(C)N(Cc1ccccc1)C(=O)/C=C/c1ccccc1[N+](=O)[O-],inconclusive: 8.01% [at 46 µM],–
CCOC(=O)C1=C(C)NC2=C(C(=O)C(C(=O)OC)C(C)C2)C1c1ccc(OC)c(O)c1 (configuration not stated),inactive: 11%,–
COc1ccccc1-n1cnc2c(c1=O)c1nc3ccccc3nc1n2-c1ccc(C)cc1,inconclusive: -7.81%,–
Cc1cccc(-c2nc(CSCC(=O)NCc3cccs3)c(C)o2)c1,–,"inconclusive: 15.8 µM [falling, single point]"
c1ccc(CN2CCC3(CCCc4ccccc43)CC2)cc1,inconclusive: -43.7%,–
CCN1CCN(C(CC(C)C)c2nnnn2CS(=O)(=O)c2ccc(C)cc2)CC1 (configuration not stated),inconclusive: -30.7% [at 46 µM],–
Cc1ccc(Nc2ccc(N3CCN(C(=O)c4ccc([N+](=O)[O-])cc4)CC3)nn2)cc1,inactive: -25.9% [at 46 µM],–
Cc1ccc(CNC(=O)CS(=O)Cc2nc(-c3ccccc3C)oc2C)cc1 (configuration not stated),inactive: -2.64%,–
Cc1nnsc1NC(=O)OCc1ccc(Cl)cc1Cl,inactive: 3.38%,–
Cc1c(Cl)cccc1-n1ncc(C(=O)N2CCOCC2)c1C1CCN(C(=O)OC(C)(C)C)CC1,inconclusive: 10.9% [at 46 µM],–
O=C(NC(=S)N1CCN(C/C=C/c2ccccc2)CC1)c1ccco1,inconclusive: 15.6% [at 46 µM],–
O=C(CSc1cccc[n+]1[O-])Nc1cccc(S(=O)(=O)NC2=NCCCCC2)c1,inactive: 2.62% [at 46 µM],–
Cc1ccc(-n2nc(C)c(Sc3ccccc3[N+](=O)[O-])c2N)cc1,–,"inconclusive: 35.5 µM [fluorescent, single point]"
CCCc1nn(C)c2c(=O)[nH]c(-c3ccccc3OCC)nc12,inconclusive: -23.1%,–
Cn1cc(S(=O)(=O)N2CCCCC2)cc1C(=O)Nc1cccc(C#N)c1,inactive: -7.92% [at 46 µM],–
CCOc1ccc(NC(=O)c2ccc(F)c(S(=O)(=O)N3CCN(c4ccccn4)CC3)c2)cc1,–,"inconclusive: 6.31 µM [fluorescent, full curve, poor fit]"
O=S(=O)(Nc1nc2ccccc2nc1N1CCN(c2ccccc2)CC1)c1ccc(F)cc1,–,"inconclusive: 35.5 µM [fluorescent, single point]"
CCOc1ccccc1NC(=O)c1c(NCc2sccc2C)sc2c1CCC(C)C2 (configuration not stated),inconclusive: -5.2% [at 46 µM],–
N#Cc1sc2nc3c(c(-c4ccco4)c2c1N)CCCC3,inconclusive: -26.9%,–
O=C(CNC(=S)N(Cc1ccccc1F)C1CCCCC1)NCCCN1CCOCC1,inconclusive: -9.86% [at 9.22 µM],–
Cc1ccc2[nH]c(SCC(=O)N3CCOCC3)nc2c1C,inconclusive: -10.6%,–

# Some values from the results shown.
# ratio change, negative = inhibition, O=C(N/N=C/c1ccc(Br)cc1)c1cc[n+](Cc2ccccc2)cc1 is entered as inconclusive: -10.4%
# ratio change, negative = inhibition, CCN1CCN(C(CC(C)C)c2nnnn2CS(=O)(=O)c2ccc(C)cc2)CC1 (configuration not stated) is entered as inconclusive: -30.7% [at 46 µM]
# ratio change, negative = inhibition, CC(C)N(Cc1ccccc1)C(=O)/C=C/c1ccccc1[N+](=O)[O-] is entered as inconclusive: 8.01% [at 46 µM]
# ratio change, negative = inhibition, NC(=O)C1CCN(C(=O)COc2cccc3cccnc23)CC1 is entered as inconclusive: -7.18% [at 46 µM]

# (more compounds)

Structure (SMILES),"ratio change, negative = inhibition",Potency
C#CC[N+](C)(C)CCCCCCCC,inconclusive: -33.4%,–
COc1cc(OC)cc(C(=O)N2CCC(N3CCN(c4ccccc4OC)CC3)CC2)c1,inconclusive: 1.07%,–
O=[N+]([O-])c1cc(S(=O)(=O)NCCCN2CCOCC2)ccc1Cl,inactive: -2.73%,–
Cn1c(N)c(N=Nc2ccc(S(N)(=O)=O)cc2)c(=O)n(C)c1=O,inconclusive: 20.9% [at 46 µM],–
O=C(ON=C1CCN(S(=O)(=O)c2ccccc2)CC1)c1ccc(F)cc1,inactive: 5.29%,–
c1ccc2c(c1)CCC[C@@H]2C1=NCCN1,inactive: -13.1%,–
CCOc1c2ccc(C(=O)N[C@H](C)C3CCCCC3)cc2nn1CC,inactive: -1.16%,–
COC(=O)Nc1ccc(S(=O)(=O)N2CCC(C(=O)N(C)C3CCCCC3)CC2)cc1,inconclusive: 11.3% [at 9.22 µM],–
Cc1nc2cc(-c3ccccc3)sc2c(=O)n1N,–,"inconclusive: 11.2 µM [activator, partial curve]"
C/C(=N/Nc1ccc(C)cc1)C1(C)N(O)C(C)(C)C(c2ccco2)=[N+]1[O-] (configuration not stated),inactive: -5.81% [at 46 µM],–
CC12CCC(C(=O)Nc3nc4ccc(Br)cc4s3)(OC1=O)C2(C)C (configuration not stated),inconclusive: 20.2% [at 46 µM],–
O=c1cc(O)c2sc(Nc3ccc(F)c(Cl)c3)nc2[nH]1,–,"inconclusive: 11.2 µM [activator, partial curve]"
CCOc1ccc(OCCNC2CCCC2)cc1,inactive: 14.2%,–
CCn1c(C)cc(/C=C2/NC(=O)N(Cc3ccccc3F)C2=O)c1C,inconclusive: 2.53%,–
COc1ccc(CCNC(=O)C23CN(Cc4ccccc4)CC2C(c2ccc([N+](=O)[O-])cc2)=NO3)cc1 (configuration not stated),inactive: -4.34%,–
O=C(CCC(=O)NNC(=S)Nc1ccccc1)NCc1ccccc1,inactive: 12.9%,–
O=C(NCCc1ccc2c(c1)OCCO2)c1cccc(F)c1,–,"inconclusive: 11.2 µM [falling, partial curve]"
COc1ccc(-c2cc3nc(C4CCN(C(=O)OC(C)(C)C)CC4)c(C(=O)O)cn3n2)cc1,inactive: 11.5%,–
Cc1nc(SC(C)C)[nH]c(=O)c1Cc1ccccc1,inconclusive: 7.6%,–
O=C(Nc1ccccc1)N1N=C(c2ccc(F)cc2)CC1c1ccc(F)cc1 (configuration not stated),inconclusive: 7.71%,–
CCCc1cc(=O)[nH]c(SCC(=O)c2ccc(S(=O)(=O)N3CCCC3)cc2)n1,inconclusive: 20.9%,–
CN1CCc2nc3sc(C(=O)Nc4ccccc4OC(F)(F)F)c(N)c3cc2C1,inactive: -10.2% [at 46 µM],–

Structure (SMILES),"ratio change, negative = inhibition",Potency
O=C(O)CCCc1nc2ccccc2s1,inactive: 8.41%,–
COc1ccc(C(C)=O)cc1COC(=O)c1cccc(N(C)C)c1,inconclusive: 4.92%,–
CCCCC(=O)Nc1cccn2ncnc12,inconclusive: 21.2% [at 46 µM],–
O=C(Nc1nccs1)c1ccc(COc2ccc(Cl)cc2)o1,inconclusive: 5.06%,–
Cc1cccc(-n2ccnc2SCC(=O)Nc2cccc3ccccc23)c1C,inconclusive: -18.9% [at 46 µM],–
COc1ccc(C(=O)Nc2ccc3c(c2)CCCN3C(=O)c2cccs2)c(OC)c1,inconclusive: -42.2% [at 46 µM],–
CCn1c(=O)c(C(=O)NNS(=O)(=O)c2ccc(Cl)cc2)c(O)c2ccccc21,–,"inconclusive: 35.5 µM [falling, single point]"
CCOc1ccccc1CN1CCc2nc(Nc3ccc4c(c3)OCCO4)ncc2C1,inconclusive: -30% [at 46 µM],–
COC(=O)Cc1cc(=O)[nH]c(/N=C(\N)Nc2ccc(C(C)C)cc2)n1,inconclusive: 31% [at 46 µM],–
CC(C)OC(=O)CSc1nnc(Cc2ccccc2)n1Cc1ccco1,inconclusive: 17.2%,–
COc1cc(Nc2ccccc2Cl)c([N+](=O)[O-])nc1[N+](=O)[O-],inactive: 27.6%,–
COc1cc(N=C2C(=O)N3c4c(cccc42)C(C)=CC3(C)C)cc(OC)c1,inactive: -1.14%,–
CCN(c1ccccc1)S(=O)(=O)c1ccc(Cl)c(NC(=O)Nc2ccc(Cl)cc2C#N)c1,inconclusive: -30.8%,–
COC(=O)c1[nH]c2ccc(F)cc2c1NS(=O)(=O)c1ccc(OC)cc1OC,inactive: -7.38%,–
Cc1ccc(NC(=O)CSc2nnc(NC(=O)CN3CCOCC3)s2)cc1,inactive: 1.58%,–
Cc1cccc(N2C(=O)CSC23C(=O)N(CC(=O)NCc2ccccc2Cl)c2ccccc23)c1 (configuration not stated),inactive: -8.3% [at 46 µM],–
O=C(O)Cc1ccc(C(=O)c2cccs2)s1,inactive: 1.04%,–
CC(=O)Nc1ccc(NC2=C(Cl)C(=O)c3ccccc3C2=O)cc1,inconclusive: 207% [at 46 µM],–
CC1=C(C(=O)OCc2ccccc2)C(c2ccsc2)NC(=O)N1C (configuration not stated),inconclusive: -9.15% [at 46 µM],–
COc1cccc(CNC(=O)c2ccc3c(c2)nc2n3CCOC2)c1,inconclusive: 13.2% [at 46 µM],–
O=C(CSc1nnc(-c2ccncc2)o1)Nc1ccccc1Cl,inactive: -4.32%,–
